Source: patent publication US6528618B1 (Yeda Research and Development Co. Ltd., priority 1997, dated 2003)

Test: general procedure: Fmoc solid-phase peptide synthesis; Wang resin; PyBOP/NMM
Conditions: whole synthesis, scale 12.5 μmol

Glu62-Ile-Leu-Ile-Phe-Trp-Ser-Lys-Asp-Ile-Gly-Tyr-Ser-Phe-Thr76
final HPLC purity (220 nm): above 98% pure
isolated mass: approx. 15 mg
